PubChem BioAssay AID1159578 | Peter MacCallum Cancer Centre – 2015
This is one part, drawn at random, of about 18,000 deposited reagents. Of all reagents, about 1,030 (5.7%) got an active call. 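Inactive calls also include pools with fewer than 3300 nuclei, whose migration was not assessed.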 Raw values vary from plate to plate and are shown uncorrected. Entries without a mark were called inactive. Not all columns of the deposit are shown.

Assay: 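siRNA pools altering how lymphatic endothelial cells close a scratch wound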 (primary screen)
Cells: human lymphatic endothelial cells
Reagents: siRNA pool against human genes, 40 nM
Timing: 48 h after transfection
Measurement: 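Cells stained with dye and imaged after a scratch; covered wound area and nuclei counted, duplicates averaged, migration set against mock wells and turned into a robust z-score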
Scale: migration robust z-score: higher = faster migration into the scratch; nuclei per well: higher = more cells in the well
Rule for the call: 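Migration changed when robust z exceeds 2 or falls below -2 and mean nuclei number is at least 3300; otherwise not called changed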
Meaning of the calls: active = migration changed; inactive = no migration change, or too few cells

What is on record for DDX19A (DEAD-box helicase 19A)?
migration robust z-score: -0.44; migration class with cell-count check: migration z between -2 and 2; enough cells; nuclei per well, duplicate mean: 6389

What is on record for TUBA3E (tubulin alpha 3e)?
migration robust z-score: -0.82; migration class with cell-count check: migration z between -2 and 2; enough cells; nuclei per well, duplicate mean: 4114

For FCGR2C (Fc gamma receptor IIc (gene/pseudogene)), how do the results read?
migration robust z-score: 0.64; migration class with cell-count check: migration z between -2 and 2; enough cells; nuclei per well, duplicate mean: 6119

What did the screen give for NLK (nemo like kinase)?
migration robust z-score: -0.96; migration class with cell-count check: migration z between -2 and 2; enough cells; nuclei per well, duplicate mean: 4202

With MMS19 (MMS19 cytosolic iron-sulfur assembly component), how do the results read?
migration robust z-score: 0.06; migration class with cell-count check: migration z between -2 and 2; enough cells; nuclei per well, duplicate mean: 7072

How did the screen score OTUD4 (OTU deubiquitinase 4)?
migration robust z-score: 0.5; migration class with cell-count check: migration z between -2 and 2; enough cells; nuclei per well, duplicate mean: 7036

Sorted by “migration robust z-score” (high to low): some entries from above
FCGR2C (Fc gamma receptor IIc (gene/pseudogene)): migration robust z-score = 0.64; migration class with cell-count check = migration z between -2 and 2; enough cells; nuclei per well, duplicate mean = 6119
TUBA3E (tubulin alpha 3e): migration robust z-score = -0.82; migration class with cell-count check = migration z between -2 and 2; enough cells; nuclei per well, duplicate mean = 4114

Additional records follow.
With DNAJC5B (DnaJ heat shock protein family (Hsp40) member C5 beta), what was measured?
migration robust z-score: 1.33; migration class with cell-count check: migration z between -2 and 2; enough cells; nuclei per well, duplicate mean: 5279

With APC (APC regulator of Wnt signaling pathway), what does the deposit list?
migration robust z-score: -0.31; migration class with cell-count check: migration z between -2 and 2; enough cells; nuclei per well, duplicate mean: 5450

With FANCI (FA complementation group I), what does the deposit list?
migration robust z-score: -0.34; migration class with cell-count check: migration z between -2 and 2; enough cells; nuclei per well, duplicate mean: 4582

For PAGE3 (PAGE family member 3), how do the results read?
migration robust z-score: 0.77; migration class with cell-count check: migration z between -2 and 2; enough cells; nuclei per well, duplicate mean: 4853

What is on record for CYREN (cell cycle regulator of NHEJ)?
migration robust z-score: -1.83; migration class with cell-count check: migration z between -2 and 2; enough cells; nuclei per well, duplicate mean: 5658

How did the screen score OR5AS1 (olfactory receptor family 5 subfamily AS member 1)?
migration robust z-score: 0.07; migration class with cell-count check: migration z between -2 and 2; enough cells; nuclei per well, duplicate mean: 5913
